Data reported in patent US11897927B2, “Immunogenic compositions targeting recurrent cancer mutations and methods of use thereof” (Advaxis, Inc., priority 2016, dated 2024).

What follows are substances tested on tumor-associated antigen genes (assay: Percent expression of TAA gene in patients (TCGA RNAseqV2 dataset)). Settings: NSCLC panel.
Set-up: species or system human

Row | Substance | % Expression in TCGA [%]
1 | MAGE-A4 | 35
2 | MAGE-A6 | 53
3 | NY-ES01 | 50
4 | RNF43 | 100

What was measured is the transcript of the gene that encodes the chain shown.
